Results deposited as PubChem BioAssay AID720505 (Drosophila RNAi Screening Center, 2013).

Test: 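Genes needed for store-operated calcium entry in fly cells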 (primary screen)
Cells: Drosophila S2R+ cells
Knock-down reagent: long dsRNA against Drosophila genes
Treatment: thapsigargin (2 µM) in calcium-free buffer to empty internal stores, then 2 mM calcium added back
Read-out: 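Stores emptied by 2 µM thapsigargin without calcium, then 2 mM calcium re-added; fluo-4 fluorescence followed by FLIPR in 384-well plates, per-well averaged endpoint, raw; two screen passes, some wells retested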
Scale: calcium signal and retest calcium signal: higher = more calcium entry after store depletion
Hit rule: 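About 1500 genes called as lowering calcium entry, by varying amounts, judged against per-plate control wells with STIM1 as positive and Rho1 as negative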
Meaning of the calls: active = called as lowering calcium entry; inactive = not called
The deposit covers about 20,000 reagents; this is an unselected part of those with a known target gene and a result. Of all reagents, about 2,100 (10%) were called active. 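Raw plate signals without normalisation; calls rest on control-based scores that were not deposited; replicate 2 separates called from uncalled poorly.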 Entries without a mark were called inactive. Names joined by + are all predicted targets of the reagent. Not stated in the record: the amount of reagent, the time to read-out.

target	amplicon	calcium signal, replicate 1	calcium signal, replicate 2	retest calcium signal, replicate 1	retest calcium signal, replicate 2
CG10413	DRSC02052	67.8 (active)	86.4		
CG43693	DRSC10625	70.5 (active)	79		
CG7945	DRSC10934	60.8 (active)	118		
CG30379	DRSC05070	99.4	133		
Ttc7	DRSC04836	199	84.1		
CG8435	DRSC07179	141	108		
Naam	DRSC16252	148	159		
tub	DRSC12389	120	85.6	183	158
tub	DRSC22800	96.1	125		
CG32163	DRSC09442	7911	112		
CG32163	DRSC21888	83.1	149		
CG33627	DRSC05343	106	104		
rasp	DRSC08191	104	128		
CG16790	DRSC15156	176	132		
bel	DRSC16555	148	172		
Or33b	DRSC03387	78.7	115		
RpL40	DRSC00782	90.8	102		
CG12655	DRSC20678	173	119		
Sema1b	DRSC07550	107	102		
elB	DRSC03527	113	110		
CG32563	DRSC19934	93.7	103		
CG7886	DRSC16333	180	209		
nAChRalpha3	DRSC18800	255	111		
CG12020	DRSC08226	104	94		
Bicra	DRSC14417	220	154		
osi	DRSC02931	131	116	116	142
LS2	DRSC04340	103	115		
CG10674	DRSC09775	99.9	86.4		
CG4607	DRSC18375	186	155		
CG30340	DRSC05167	129	125		
CG10104	DRSC05964	64 (active)	101		
CG4080	DRSC10398	99.1	131		
CG14120	DRSC10124	97.9	55.7		
CG7646	DRSC11232	104	143		
CycK	DRSC03714	153	84.7		
Ldh	DRSC11198	106	83.7		
mRpS11	DRSC15732	191	214		
Tsp2A	DRSC18584	78.5	100		
Spn88Eb	DRSC16093	108	154		
mRpS2	DRSC00550	194	108		
Mst98Ca	DRSC16749	61 (active)	56.9	110	130
azot	DRSC06051	71	111		
lncRNA:CR42646	DRSC04759	124	112		
Rpt6R	DRSC15431	201	139		
Cht6	DRSC18001	96.7	78.3		
Cht6	DRSC18002	110	108		
Cht6	DRSC18253	76.3 (active)	93.3		
Cht6	DRSC23211	79.7	95		
noc	DRSC03580	131	139		
Hrb87F	DRSC16708	97.2	90.8		
Scr	DRSC12604	84.3	142		
Scr	DRSC23141	148	144		
twr	DRSC12491	138	169		
CG17294	DRSC02596	97.6	211		
Pxn	DRSC08685	78.9 (active)	74.1	102	107
CG5928	DRSC18391	227	118	5273	156
sigmar	DRSC04449	189	104		
Mal-A5	DRSC07232	183	127		
CG1785	DRSC18139	130	107		
Xpac	DRSC18730	193	112		
Abca3	DRSC20546	226	81.5		
CG33281	DRSC00421	118	99.6		
Mical	DRSC14349	61.2 (active)	65.5		
Mical	DRSC14351	106	79.3		
Mical	DRSC15365	70.4 (active)	105		
Mical	DRSC15366	108	79		
Ent2	DRSC02124	119	230		
CG14245	DRSC14740	117	123		
CG8534	DRSC16439	146	107		
CG7320	DRSC10810	113	205		
lgs	DRSC17152	110	157		
Obp50b + Obp50c	DRSC21818	162	81.3		
wech	DRSC06606	59.8 (active)	152		
CG12320	DRSC14498	252	182		
CG30419	DRSC04208	136	144	103	125
CG30419	DRSC04209	106	219	146	106
CG30419	DRSC22519	109	133		
CG13021	DRSC17893	104	115		
dpy	DRSC00233	91.1	94.9		
dpy	DRSC00234	145	135		
dpy	DRSC00472	131	138		
Sems	DRSC11626	101	150		
Syp	DRSC15286	142	353		
Gr9a	DRSC22506	100	168		
CG33775	DRSC05353	112	145		
CG3515	DRSC00609	175	102		
COX7AL2	DRSC00099	86.5 (active)	93.5		
gus	DRSC04885	172	120		
gus	DRSC04886	83 (active)	121	151	101
CG2924	DRSC18525	142	158		
Ir41a	DRSC04730	119	137		
Ir41a	DRSC04875	108	152		
CG13243	DRSC01920	102	110		
Gclc	DRSC18666	165	127		
CG18636	DRSC02685	82.8	114		
ImpL2	DRSC08666	67 (active)	86.7		
Bsg	DRSC01010	150	93.4		
Bsg	DRSC01011	71.8 (active)	78.6		
Saf-B	DRSC16167	167	252		
CG15446	DRSC20518	68.3 (active)	126		
CG1233	DRSC08269	138	81.8		
FarO	DRSC18475	82.4	130		
CG33453	DRSC05782	80.8	115		
Adk2	DRSC09827	123	73.8		
Aldh	DRSC02717	135	116		
bumpel	DRSC16100	104	151		
